The text below walks through data of PubChem BioAssay AID2685 (National Center for Advancing Translational Sciences (NCATS), 2010).

The list shows a part of the results. Further columns of the screen follow, without active or inactive calls. The list favours compounds with an active or inconclusive main result. Potencies come from curve fits of mixed quality, noted in brackets.

The assay is described as follows: qHTS Assay for Lipid Storage Modulators in Drosophila S3 Cells.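 As to cell number change: cells counted by Cell Tracker Red CMTPX staining in the red channel.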 The conditions noted are these: BODIPY lipid droplet fluorescence, 18-24 h; for cell number change: measured here: cell count max response, cells fed with added oleic acid. An outline of the steps: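 Drosophila S3 cells got compounds at several concentrations plus oleic acid (400 uM solution). Laser-scanning cytometry with 488 nm excitation read lipid droplets at 500-530 nm and cells at 575-640 nm. Percent activity was relative to 20 uM Triacsin C.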
In general terms: qHTS replaces the single test concentration by a dilution series.

The mark [1] stands for this setting: measured here: cell number channel AC50, cells fed with added oleic acid.
[2] abbreviates: measured here: lipid fluorescence (Fed channel) AC50, cells fed with added oleic acid.

On to `CNP(=S)(NC)OCCOc1ccc(OC)cc1`, for which the cell number change is -28.6%.

As usually defined, the AC50 is the concentration giving half of the maximal activity seen. A high value points to activity only at high concentration. Turning to `COc1cccc(N2CCN(Cc3ccc(Cl)cc3)CC2)c1`, the cell number change was -39.1%. Further, the half-maximal activity concentration (AC50) under setting [1] is 3.26 µM [falling, partial curve, poor fit]. Under setting [2], the AC50 is 9.2 µM [falling, partial curve, poor fit].

Consider `c1ccc2c(CCNC3=NCCC3)c[nH]c2c1`, for which the cell number change was -14.2%. In addition, the AC50 under setting [2] is 0.0291 µM [rising, full curve, poor fit].

On to `CCCC(C)C1(CC)C(=O)NC(=Nc2ccc(OC)cc2)NC1=O` (configuration not stated), for which the cell number change was 0.565%. Also, the AC50 under setting [2] was 0.651 µM [falling, full curve, poor fit].

With `C/C(=N\Nc1ccccc1)c1c(O)n(C)c(=O)n(C)c1=O`, the cell number change is 30.2%. Further, under setting [1], the AC50 was 32.6 µM [rising, partial curve, poor fit]. The AC50 under setting [2] is 0.0411 µM [rising, full curve].

In the case of `Clc1ccc(C(Cl)(Cl)Cl)c(Cl)c1`, the cell number change came to 17.7%. The AC50 under setting [2] is 29.1 µM [rising, single point].

With `CCCCn1c(=O)c(C(=O)NCc2ccc(Cl)cc2)c(O)c2ccccc21`, the cell number change was determined as 5.87%. In addition, the AC50 under setting [2] was 25.9 µM [falling, single point].

In the case of `Cc1cc([N+](=O)[O-])c2ccccc2[n+]1[O-]`, the cell number change was -45.8%. Besides, under setting [1], the AC50 is 0.731 µM [falling, partial curve, poor fit]. The AC50 under setting [2] is 0.651 µM [falling, full curve].

With `O=C(CCC(=O)N1CC2C[C@@H](C1)Cn1c2cccc1=O)NCCc1ccccc1F`, the cell number change was determined as 33.7%. The AC50 under setting [2] was 29.1 µM [rising, single point].

On to `O=C1NC(=O)N(c2ccc(Cl)cc2)C(=O)/C1=C\c1ccc(Sc2nc3ccccc3[nH]2)o1`, for which the cell number change was -94.3%. Moreover, the AC50 under setting [1] is 29.1 µM [falling, single point]. Further, under setting [2], the AC50 is 4.61 µM [falling, single point].

On to `CCCSP1(=S)NCCCO1` (configuration not stated), for which the cell number change was -0.814%. The AC50 under setting [2] was 23.1 µM [rising, single point].

In the case of `CCOC(=O)N1CCN(C(C)C(=O)c2c[nH]c3ccccc23)CC1` (configuration not stated), the cell number change is -23%. Also, the concentration at half-maximal activity (AC50) under setting [2] is 2.59 µM [falling, partial curve, poor fit].

Turning to `CCOC(=O)C1(CCOc2ccccc2)CCN(Cc2ccc(C)s2)CC1`, the cell number change is -49.4%. Also, under setting [1], the AC50 was 23.1 µM [falling, single point]. In addition, the concentration at half-maximal activity (AC50) under setting [2] was 25.9 µM [falling, single point].

As to `CNC(=O)Oc1cccc(-c2cn3cc(Cl)ccc3n2)c1`, the cell number change is -13.6%. Besides, under setting [2], the half-maximal activity concentration (AC50) was 5.8 µM [rising, full curve].

As to `Nc1c(C(=O)NCC2CCCO2)c2nc3ccccc3nc2n1Cc1ccco1` (configuration not stated), the cell number change was -28.2%. Moreover, the AC50 under setting [2] is 16.4 µM [falling, single point].

`COc1cccc(CCNCc2c(F)cccc2F)c1`: the cell number change is -13.1%. The half-maximal activity concentration (AC50) under setting [2] was 6.51 µM [falling, partial curve].

On to `NC(=S)/N=C/c1c(O)[nH]c(=O)[nH]c1=O`, for which the cell number change is -38.9%. Moreover, the AC50 under setting [1] was 0.0326 µM [rising, full curve, poor fit]. Moreover, the AC50 under setting [2] was 5.17 µM [falling, single point].

For the compound `Cc1ccc(C(=O)C2CN3CCC2CC3)cc1` (configuration not stated), the cell number change was -207%. For the same compound, the AC50 under setting [1] is 20.6 µM [falling, partial curve]. Further, under setting [2], the AC50 is 0.731 µM [falling, single point].

Take `CC1CN=C(Nc2ccc(F)cc2)S1` (configuration not stated): the cell number change came to 84.6%. Also, the AC50 under setting [1] was 4.11 µM [rising, full curve]. Moreover, the AC50 under setting [2] is 4.61 µM [rising, full curve].

Regarding `CC1C(C)N1CC(O)Cn1ccnc1[N+](=O)[O-]` (configuration not stated), the cell number change turned out to be 7.55%. For the same compound, the AC50 under setting [2] was 0.461 µM [falling, full curve, poor fit].

As to `O=C(NC1CC1)C1CSC(c2cccnc2)=N1` (configuration not stated), the cell number change turned out to be 25.1%.

Take `c1coc(CNCCc2c[nH]c3ccccc23)c1`: the cell number change is 5.77%. For the same compound, under setting [2], the concentration at half-maximal activity (AC50) was 5.8 µM [falling, single point].

As for `O=C(COc1ccc2ccc(=O)oc2c1)N1C[C@H]2C[C@@H](C1)c1cccc(=O)n1C2`, the cell number change was -11.3%. Besides, the AC50 under setting [2] is 20.6 µM [falling, single point].

Regarding `Cc1cc(OCC(=O)NC(Cc2ccc(Cl)cc2)C(=O)O)c2c3c(c(=O)oc2c1)CCCC3` (configuration not stated), the cell number change worked out at 7.49%.

`Cc1ccc(N2C(=O)CC(=O)NC2=O)c(C)c1`: the cell number change was -4.18%.

With `CN1CCN(C(=O)COc2ccc(S(=O)(=O)NCc3ccccc3)cc2Cl)CC1`, the cell number change was 36.7%. Moreover, the AC50 under setting [1] was 10.3 µM [rising, single point].

For the compound `CCN(CC)C(=O)c1ccc(N(Cc2ccccc2)S(C)(=O)=O)cc1`, the cell number change was -0.702%.

As to `CC1CCCCC1NC(=O)CNC(=S)N1CC2CC(C1)c1cccc(=O)n1C2` (configuration not stated), the cell number change is -4.78%.

Turning to `O=C(CN1CCCCC1)c1ccc(F)cc1`, the cell number change is -31%. In addition, the AC50 under setting [1] is 0.58 µM [falling, full curve, poor fit]. Besides, under setting [2], the AC50 is 0.58 µM [falling, full curve, poor fit].

Take `CCCC(=O)NC(Oc1ccc(Cl)cc1Cl)C(Cl)(Cl)Cl` (configuration not stated): the cell number change was found to be 22.9%.

For `c1ccc(CCN2CCC(N3CCN(c4ccccc4)CC3)CC2)cc1`, the cell number change is -11.7%.

`CC[C@@]1(O)C(=O)OCc2c1cc1n(c2=O)Cc2cc3ccccc3nc2-1`: the cell number change is -9.51%.

For the compound `COC(=O)C1=C(c2ccc(-c3ccccc3)c(F)c2)C[C@@H]2CC[C@H]1N2C(=O)NCCO`, the cell number change came to 19.3%. For the same compound, the AC50 under setting [1] is 0.651 µM [falling, full curve]. For the same compound, under setting [2], the half-maximal activity concentration (AC50) is 0.651 µM [rising, single point].

Consider `CC1CCCC(NC(=O)COC(=O)Cc2ccccc2)C1C` (configuration not stated), for which the cell number change was -49.2%. The AC50 under setting [1] was 13 µM [falling, partial curve].

For `Cc1ccc(S(=O)(=O)N(C)CCCC(=O)N2CCN(c3ccccn3)CC2)cc1`, under setting [1], the AC50 was 0.411 µM [rising, partial curve].

Turning to `CN(C)[C@@H]1C(=O)C(C(N)=O)=C(O)[C@@]2(O)C(=O)C3=C(O)c4c(O)ccc(Cl)c4[C@@](C)(O)[C@H]3C[C@@H]12`, the cell number change was 0.872%. In addition, the AC50 under setting [2] was 25.9 µM [falling, single point].

On to `CCCNc1nc(OC)nc(N2CC3CC(C2)c2cccc(=O)n2C3)n1` (configuration not stated), for which the cell number change was -31.8%. For the same compound, the concentration at half-maximal activity (AC50) under setting [1] was 0.206 µM [falling, full curve, poor fit].

Take `O=C1NC(=O)N(c2ccccc2F)C(=O)/C1=C/c1cn(CC(=O)N2CCOCC2)c2ccccc12`: the cell number change stood at 2.63%.

As for `CCCOP(=O)(c1ccc(N(C)C)cc1)C(O)c1cccnc1` (configuration not stated), the AC50 under setting [1] is 5.8 µM [rising, full curve].

For `COC(=O)C1=C(c2cccc(OCc3ccccc3)c2)C[C@@H]2CC[C@H]1N2C(=O)NCc1cccc(C(F)(F)F)c1`, the cell number change is -33%. For the same compound, under setting [1], the AC50 is 4.11 µM [falling, single point]. In addition, the AC50 under setting [2] was 4.61 µM [falling, single point].

`CCCNC(=O)N1[C@H]2CC[C@@H]1C(C(=O)OC)=C(c1ccc3ccccc3c1)C2`: the cell number change was -9.39%. Further, under setting [2], the AC50 is 0.206 µM [rising, full curve, poor fit].

`N[C@@H](Cc1c[nH]c2ccccc12)c1nnc(SCc2ccccc2)o1`: the cell number change worked out at 26.4%.

On to `CC(CCc1ccccc1)NC(C)C(O)c1ccc(O)cc1` (configuration not stated), for which the cell number change is -10.3%. Further, under setting [2], the AC50 was 0.146 µM [falling, full curve, poor fit].

In the case of `COc1cc2c(cc1OC)C(C1c3cc4c(cc3CCN1C)OCO4)OC2=O` (configuration not stated), the cell number change was 7.35%. Also, under setting [2], the AC50 is 20.6 µM [rising, partial curve].

As for `C=CCn1c(O)c(/C=C2\C=Nc3ccccc32)c(=O)[nH]c1=O`, the cell number change was -66.2%. The AC50 under setting [1] was 29.1 µM [falling, single point].

As for `Cc1nc2ccccc2c(=O)n1-n1cnnc1`, the cell number change worked out at 182%. The AC50 under setting [2] is 4.11 µM [rising, full curve].

In the case of `Cc1ccc(C(C)C)c(OCCn2c(=O)oc3ccccc32)c1`, the AC50 under setting [1] is 18.4 µM [falling, single point].

In the case of `CCC/C(=N\O)c1c[nH]c2ccccc12`, the cell number change came out at 2.23%.

For the compound `CC(C)(C)c1ccc(O)c(N=Cc2c(O)ccc3ccccc23)c1`, the cell number change is -64.3%. Besides, the AC50 under setting [1] was 25.9 µM [falling, partial curve]. Also, the AC50 under setting [2] is 23.1 µM [falling, single point].

Regarding `COC(=O)C1=C(c2cccc(C#N)c2)C[C@@H]2CC[C@H]1N2C(=O)NCCOc1ccccc1Cl`, the cell number change is -40.2%. The AC50 under setting [1] was 1.16 µM [falling, full curve]. In addition, the AC50 under setting [2] was 1.46 µM [falling, partial curve].

With `COC(=O)C1=C(c2ccc(OC(F)(F)F)cc2)C[C@@H]2CC[C@H]1N2C(=O)NCCNC(C)=O`, the cell number change stood at 7.82%. Besides, the AC50 under setting [2] is 11.6 µM [rising, partial curve].

On to `C=CCN1C(=O)C2(C(C(=O)OCC)=C(N)Oc3ccccc32)C2=C1CCCC2=O` (configuration not stated), for which the cell number change is 9.92%. Also, the AC50 under setting [2] is 29.1 µM [rising, single point].

For `CC(C)OCC(O)CN1CC2C[C@@H](C1)Cn1c2cccc1=O` (some centres not stated), the cell number change turned out to be 4.17%.

As for `O=P(CCl)(Nc1ccccc1)C(Cl)(Cl)Cl` (configuration not stated), the cell number change was determined as 29.8%.

As to `Cc1nn(Cc2ccccc2)c(C)c1C=C1C(=O)NC(=S)NC1=O`, the AC50 under setting [2] was 0.00461 µM [falling, full curve, poor fit].

As to `Cc1ccc(-c2nn(CCC#N)cc2C(=O)O)cc1C`, the cell number change is -47.8%. Further, the AC50 under setting [1] was 2.91 µM [falling, full curve]. Further, the AC50 under setting [2] is 1.84 µM [falling, partial curve].

On to `CCOc1ccc(CN2CCCC(C(=O)c3ccccc3OC)C2)cc1` (configuration not stated), for which the cell number change was -0.275%.

`COCCN(CC(=O)Oc1ccccc1P(=O)(OC)OC)Cc1ccccc1`: the AC50 under setting [1] was 0.13 µM [falling, full curve, poor fit].

Take `CCCc1[nH]nc2c1C1(C(=O)N(CC(N)=O)c3ccccc31)C(C(=O)OC)=C(N)O2` (configuration not stated): the cell number change is -5.71%. Further, the AC50 under setting [2] is 29.1 µM [falling, single point].

As to `O=c1c2ccccc2nc(-c2cccs2)n1-c1cnccn1`, the cell number change was -0.129%.

Regarding `Cc1ccc2nsnc2c1-n1c(C)nc2ccccc2c1=O`, the cell number change was 19.5%. Besides, the AC50 under setting [2] is 18.4 µM [rising, single point].

In the case of `CC/C(CC(c1ccccc1)c1c(O)c2ccccc2oc1=O)=N\NC(N)=S` (configuration not stated), the cell number change worked out at 20.4%. The AC50 under setting [2] was 9.2 µM [rising, partial curve, poor fit].
